PubChem BioAssay AID504791, Drosophila RNAi Screening Center | 2011

Screen: 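Genes whose knock-down strengthens or weakens small-RNA reporter silencing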 (primary screen)
Cells: Drosophila S2-derived reporter cells
Reagent: long dsRNA against Drosophila genes, about 150-250 ng dsRNA per well (siRNA assay); about 80-120 ng (miRNA assay)
Time to read-out: about 5 days (siRNA assay); about 4 days (miRNA assay)
Challenge: copper sulfate induction of reporters: 25 µM (siRNA assay); 200 mM stated (miRNA assay), 1-2 days before reading
Measurement: 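Per-well ratio of Renilla over firefly light, expressed relative to that plate's average ratio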
Direction: siRNA reporter hit score: higher = 3 marks a strong hit with raised ratio; -3 a strong hit with lowered ratio
Active means: 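a well was a first-pass pick when its plate-scaled ratio rose above 1.5 (siRNA assay) or 1.6 (miRNA assay), or dropped below 0.6; a gene counted only if two separate dsRNAs agreed on retest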
The deposit covers about 23,000 reagents; shown is a random part of those that have a named target and a result. Of all reagents, 199 (0.86%) are marked active. 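Plate-scaled ratios behind the calls are not deposited; printed light signals are raw; many rows marked increased or decreased are still called inactive.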 A plus sign joins genes that one reagent is predicted to hit.

| Target gene | DRSC id | siRNA reporter hit score | stable siRNA reporter change | miRNA reporter change | stable assay Renilla, run 1 (luminescence) | stable assay firefly, run 1 (luminescence) | outcome |
| --- | --- | --- | --- | --- | --- | --- | --- |
| EloA (Elongin A) | DRSC16109 | – | – | – | 5966 | 1.96e5 | inactive |
| CG8708 | DRSC07240 | – | – | – | 9287 | 5.72e5 | inactive |
| CG3732 | DRSC04410 | – | – | – | 8619 | 1.55e6 | inactive |
| CG32278 + CG14963 | DRSC22203 | – | – | – | 7911 | 4.63e5 | inactive |
| CG30458 | DRSC06660 | – | – | – | 4303 | 4.57e5 | inactive |
| CG4629 | DRSC00659 | – | – | – | 7295 | 4.30e5 | inactive |
| CG1409 | DRSC17910 | – | – | – | 6203 | 3.75e5 | inactive |
| ND-24L (NADH dehydrogenase (ubiquinone) 24 kDa subunit-like) | DRSC10650 | – | – | – | 8051 | 4.99e5 | inactive |
| CG14448 | DRSC11705 | – | – | – | 6780 | 3.57e5 | inactive |
| CG17567 (retired record) | DRSC02627 | – | – | – | 5979 | 3.35e5 | inactive |
| CG17567 (retired record) | DRSC22537 | – | – | – | 4052 | 4.25e5 | inactive |
| MtnD (Metallothionein D) | DRSC22733 | – | – | – | 2992 | 3.19e5 | inactive |
| CG31787 | DRSC01632 | – | – | – | 5823 | 3.17e5 | inactive |
| tomboy40 | DRSC04918 | – | – | – | 98368 | 1.03e6 | inactive |
| Rpt3R (Regulatory particle triple-A ATPase 3-related) | DRSC16501 | – | – | reporter ratio raised past the hit cutoff | 6975 | 3.32e5 | inactive |
| CG18469 | DRSC21838 | – | – | – | 8654 | 6.98e5 | inactive |
| Klf15 (Kruppel-like factor 15) | DRSC17742 | – | – | – | 5863 | 3.38e5 | inactive |
| CG13148 | DRSC06275 | – | – | – | 4415 | 2.42e5 | inactive |
| CG18368 | DRSC06731 | – | – | – | 6736 | 3.67e5 | inactive |
| mip120 (Myb-interacting protein 120) | DRSC06960 | – | – | – | 6791 | 4.57e5 | inactive |
| wuho | DRSC18101 | – | – | – | 5804 | 3.62e5 | inactive |
| Npl4 (Nuclear protein localization 4) | DRSC15615 | – | – | – | 6547 | 4.28e5 | inactive |
| Npl4 (Nuclear protein localization 4) | DRSC15616 | – | – | – | 5754 | 3.53e5 | inactive |
| CG8191 + CG12379 | DRSC19451 | – | – | – | 5631 | 5.10e5 | inactive |
| Chs2 (Chitin synthase 2) | DRSC11830 | – | – | – | 7316 | 3.32e5 | inactive |
| CG12581 | DRSC12206 | – | – | – | 9007 | 2.71e5 | inactive |
| CG12581 | DRSC12207 | – | – | – | 7803 | 4.20e5 | inactive |
| CG13405 | DRSC08310 | – | – | – | 6215 | 4.44e5 | inactive |
| Rgl (Ral guanine nucleotide dissociation stimulator-like) | DRSC11267 | – | – | – | 6395 | 4.97e5 | inactive |
| Tbc1d22 (TBC1 domain family member 22) | DRSC15867 | – | – | – | 7859 | 2.51e5 | inactive |
| CG7692 | DRSC10902 | – | – | – | 7072 | 4.22e5 | inactive |
| Nna1 (Nna1 carboxypeptidase) | DRSC19404 | – | – | – | 8123 | 6.38e5 | inactive |
| RhoBTB (Rho-related BTB domain containing) | DRSC11877 | 3 | – | – | 7528 | 3.05e5 | inactive |
| Top3alpha (Topoisomerase 3alpha) | DRSC03460 | – | – | – | 6826 | 3.64e5 | inactive |
| CG14269 | DRSC17912 | – | – | – | 6223 | 3.34e5 | inactive |
| GstD10 (Glutathione S transferase D10) | DRSC15346 | – | – | – | 6791 | 3.41e5 | inactive |
| CG9760 | DRSC11101 | – | – | – | 7631 | 3.84e5 | inactive |
| MKP-4 (MAPK Phosphatase 4) | DRSC19567 | – | reporter ratio lowered past the hit cutoff | – | 7119 | 6.63e5 | inactive |
| eys (eyes shut) | DRSC00113 | – | – | – | 5283 | 3.97e5 | inactive |
| eys (eyes shut) | DRSC00402 | – | – | – | 8499 | 3.89e5 | inactive |
| eys (eyes shut) | DRSC00403 | – | – | – | 7671 | 3.85e5 | inactive |
| eys (eyes shut) | DRSC00695 | – | – | – | 11573 | 2.08e5 | inactive |
| vvl (ventral veins lacking) | DRSC11409 | – | – | – | 5575 | 3.50e5 | inactive |
| CG42500 | DRSC14822 | – | – | – | 6803 | 5.43e5 | inactive |
| Acer (Angiotensin-converting enzyme-related) | DRSC01852 | – | – | – | 7039 | 6.57e5 | inactive |
| Iml1 (Increased minichromosome loss 1) | DRSC08249 | – | – | – | 12556 | 3.89e5 | inactive |
| CG2126 | DRSC15418 | – | – | – | 6123 | 4.24e5 | inactive |
| Ir75a (Ionotropic receptor 75a) | DRSC10188 | – | – | – | 7978 | 3.59e5 | inactive |
| CG12493 | DRSC08279 | – | – | – | 11585 | 5.01e5 | inactive |
| CG18213 | DRSC15316 | – | – | – | 7318 | 4.84e5 | inactive |
| IP3K2 (Inositol 1,4,5-triphosphate kinase 2) | DRSC19500 | – | – | – | 5378 | 3.18e5 | inactive |
| IP3K2 (Inositol 1,4,5-triphosphate kinase 2) | DRSC19747 | – | – | – | 4408 | 3.14e5 | inactive |
| IP3K2 (Inositol 1,4,5-triphosphate kinase 2) | DRSC22614 | – | – | – | 2911 | 2.77e5 | inactive |
| Eig71Ei | DRSC11156 | – | – | – | 7056 | 3.70e5 | inactive |
| Ir100a (Ionotropic receptor 100a) | DRSC14329 | – | – | – | 3899 | 3.77e5 | inactive |
| nonC (no-on-and-no-off transient C) | DRSC18366 | – | – | – | 10095 | 6.03e5 | inactive |
| nonC (no-on-and-no-off transient C) | DRSC18367 | – | – | – | 6215 | 3.17e5 | inactive |
| His3.3B (Histone H3.3B) | DRSC17773 | – | – | – | 6263 | 5.13e5 | inactive |
| His3.3B (Histone H3.3B) | DRSC18673 | – | – | – | 6356 | 6.25e5 | inactive |
| rad (retired record) | DRSC19687 | – | – | – | 3360 | 3.73e5 | inactive |
| rad (retired record) | DRSC22865 | – | – | – | 4350 | 5.42e5 | inactive |
| CG32756 | DRSC22505 | – | – | – | 3507 | 3.47e5 | inactive |
| CG32756 | DRSC23271 | – | – | – | 2935 | 2.56e5 | inactive |
| CG12204 | DRSC19442 | – | – | – | 6504 | 5.76e5 | inactive |
| CG15445 | DRSC20517 | – | – | – | 9975 | 4.56e5 | inactive |
| CG11771 | DRSC14379 | – | – | reporter ratio raised past the hit cutoff | 10876 | 3.17e5 | inactive |
| CG9117 | DRSC03141 | – | – | – | 7867 | 4.54e5 | inactive |
| CG32846 | DRSC08012 | – | – | – | 4820 | 4.11e5 | inactive |
| CG31244 | DRSC21589 | – | – | – | 8554 | 5.15e5 | inactive |
| RpL32 (Ribosomal protein L32) | DRSC16835 | – | – | – | 5087 | 3.39e5 | inactive |
| dao (down and out) | DRSC01960 | – | – | – | 7283 | 3.99e5 | inactive |
| Top2 (Topoisomerase 2) | DRSC03459 | – | – | – | 8839 | 5.55e5 | inactive |
| Tango4 (Transport and Golgi organization 4) | DRSC19786 | – | – | – | 7444 | 3.84e5 | inactive |
| CG13324 | DRSC06361 | – | – | – | 6318 | 4.26e5 | inactive |
| jub (Ajuba LIM protein) | DRSC19367 | – | – | – | 6464 | 4.22e5 | inactive |
| crol (crooked legs) | DRSC03514 | – | – | – | 12646 | 4.57e5 | inactive |
| crol (crooked legs) | DRSC21348 | – | – | – | 8208 | 5.03e5 | inactive |
| CG3735 | DRSC04411 | – | – | – | 23828 | 1.11e6 | inactive |
| PGRP-SB2 (Peptidoglycan recognition protein SB2) | DRSC11092 | – | – | – | 7087 | 4.07e5 | inactive |
| CG10053 | DRSC12502 | – | – | – | 7814 | 4.40e5 | inactive |
| CG11275 | DRSC04095 | – | – | – | 7571 | 4.62e5 | inactive |
| Ost48 (Oligosaccharyltransferase 48kD subunit) | DRSC18693 | – | – | – | 7031 | 5.02e5 | inactive |
| Psf3 (Partner of Sld Five 3) | DRSC18216 | – | – | – | 4672 | 4.55e5 | inactive |
| Psf3 (Partner of Sld Five 3) | DRSC21487 | – | – | – | 9889 | 6.03e5 | inactive |
| CG5849 | DRSC15893 | – | – | – | 8044 | 3.72e5 | inactive |
| Muc4B (Mucin 4B) | DRSC18062 | – | – | – | 5011 | 2.85e5 | inactive |
| Muc4B (Mucin 4B) | DRSC18063 | – | – | – | 4351 | 2.31e5 | inactive |
| ASPP | DRSC04305 | – | reporter ratio raised past the hit cutoff | – | 6306 | 2.32e5 | inactive |
| ASPP | DRSC23069 | – | reporter ratio raised past the hit cutoff | – | 5914 | 2.74e5 | inactive |
| pr (purple) | DRSC03596 | – | – | – | 1.13e5 | 1.54e6 | inactive |
| mRpL14 (mitochondrial ribosomal protein L14) | DRSC18597 | – | – | – | 5343 | 3.46e5 | inactive |
| Vha68-1 (Vacuolar H[+] ATPase 68kD subunit 1) | DRSC03470 | – | – | – | 6963 | 4.38e5 | inactive |
| Camta (Calmodulin-binding transcription activator) | DRSC06440 | – | – | – | 5075 | 2.57e5 | inactive |
| Camta (Calmodulin-binding transcription activator) | DRSC06441 | – | – | – | 3276 | 2.03e5 | inactive |
| Camta (Calmodulin-binding transcription activator) | DRSC07272 | – | – | – | 7862 | 4.46e5 | inactive |
| Camta (Calmodulin-binding transcription activator) | DRSC23081 | – | – | – | 4935 | 3.48e5 | inactive |
| Camta (Calmodulin-binding transcription activator) | DRSC23156 | – | – | – | 4136 | 2.83e5 | inactive |
| Camta (Calmodulin-binding transcription activator) | DRSC27929 | – | – | reporter ratio lowered past the hit cutoff | – | – | inactive |
| CG17486 | DRSC07752 | – | – | – | 7433 | 2.96e5 | inactive |
| sncRNA:430e + His2A:CG33859 + His2A:CG33817 + 37 more | DRSC21264 | -3 | – | reporter ratio raised past the hit cutoff | 5443 | 5.34e5 | active |
| rk (rickets) | DRSC03602 | – | – | – | 6382 | 3.20e5 | inactive |
| CG16964 | DRSC02546 | – | – | – | 7090 | 5.88e5 | inactive |
| RpL13 (Ribosomal protein L13) | DRSC03416 | – | – | – | 3923 | 3.10e5 | inactive |
| CG11882 | DRSC14425 | – | – | – | 5750 | 3.64e5 | inactive |
| CG3301 | DRSC15471 | – | – | – | 8633 | 2.92e5 | inactive |
| CG31441 | DRSC15723 | – | – | – | 6706 | 4.13e5 | inactive |

In a second layout: 5 of the entries above.
CG12204 [DRSC19442]
- stable assay Renilla, run 1 (luminescence): 6504
- stable assay firefly, run 1 (luminescence): 5.76e5
- outcome: inactive

CG15445 [DRSC20517]
- stable assay Renilla, run 1 (luminescence): 9975
- stable assay firefly, run 1 (luminescence): 4.56e5
- outcome: inactive

CG11771 [DRSC14379]
- miRNA reporter change: reporter ratio raised past the hit cutoff
- stable assay Renilla, run 1 (luminescence): 10876
- stable assay firefly, run 1 (luminescence): 3.17e5
- outcome: inactive

CG9117 [DRSC03141]
- stable assay Renilla, run 1 (luminescence): 7867
- stable assay firefly, run 1 (luminescence): 4.54e5
- outcome: inactive

CG32846 [DRSC08012]
- stable assay Renilla, run 1 (luminescence): 4820
- stable assay firefly, run 1 (luminescence): 4.11e5
- outcome: inactive
